Where a name gives a salt, the structure may show the parent alone. Some of the results follow. This is a noisy data set.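 Yeast growth was read as optical density at 600 nm. The two-hybrid strains grew without histidine, so growth needed the Pex3–Pex19 binding; a compound counted as trypanosome-selective if it cut growth of the trypanosome-pair strain by more than 65% and the human-pair strain by less than 65%.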

The first assay deals with Saccharomyces cerevisiae HF7c pdr5Δ. As to the kind of experiment: general growth inhibition of yeast HF7c pdr5Δ in -Leu -Trp medium, relative to DMSO; higher = stronger general growth inhibition. The settings on record: 100 µM; 24 h.
Regarding `O=C(O)c1cc([N+](=O)[O-])ccc1NCCCc1ccccc1` [5-Nitro-2-(3-phenylpropylamino)benzoic acid], the general growth inhibition is 45.9%.
On the same count and under the same terms, the result for `COc1cccc(OC)c1OCCNCC1CSc2ccccc2O1` (stereo not drawn) [Benoxathian hydrochloride] reads 39.6%.
The same measure, in the same setting: the result for `O=C(CCc1ccc(O)cc1)c1c(O)cc(O)cc1O` [Phloretin] reads 38.3%; that for `N[C@@H](C(=O)N[C@@H]1C(=O)N2C(C(=O)O)=C(Cl)CS[C@H]12)c1ccccc1` [Cefaclor], 46.4%.
Regarding `CC(C)N(CCC(=O)c1ccc2ccccc2c1)Cc1ccccc1`, the general growth inhibition came out at 89.5%.
Take `CC(C)c1ccc2c(c1)c(SC(C)(C)C)c(CC(C)(C)C(=O)O)n2Cc1ccc(Cl)cc1`: the general growth inhibition is 27.2%.
Same read-out and setting: the result for `Cn1cc(C2=C(c3ccc(Cl)cc3Cl)C(=O)NC2=O)c2ccccc21` reads 35%; that for `CCCn1c(=O)c(C)cn2nc(N)nc12`, 50.5%.
Same read-out and setting: the result for `Cc1cccc(C2CN(C)CCc3c2cc(O)c(O)c3Cl)c1` (stereo not drawn) reads 51.2%; that for `CC(=O)O[C@H]1C[C@@]2(C)[C@@H](C[C@@H](O)[C@H]3[C@@]4(C)CC[C@@H](O)[C@@H](C)[C@@H]4CC[C@@]32C)/C1=C(\CCC=C(C)C)C(=O)O` [Fusidic acid sodium], 47%.
Take `CN1[C@@H]2CC[C@H]1C[C@@H](OC(c1ccccc1)c1ccccc1)C2` [Benztropine mesylate]: the general growth inhibition came to 40.5%.
On to `CC(=O)NC[C@H]1CN(c2ccc(N3CCOCC3)c(F)c2)C(=O)O1` [Linezolid], for which the general growth inhibition worked out at 41.3%.
On the same count and under the same terms, the result for `NC(=O)c1ncn([C@@H]2O[C@H](CO)[C@@H](O)[C@H]2O)c1O` [Mizoribine] reads 51.9%; that for `COC(=O)[C@H]1[C@H]2C[C@H]3c4[nH]c5ccccc5c4CCN3C[C@H]2CC[C@@H]1O` [Rauwolscine hydrochloride], 51.8%.
Same read-out and setting: the result for `Nc1ccc(-c2nc3ccc(-c4nc5ccc(N)cc5[nH]4)cc3[nH]2)cc1` reads 77.7%.
Consider `c1ccc(-c2ccccn2)nc1` [2,2'-Bipyridyl], for which the general growth inhibition stood at 22.1%.
As for `O=C1/C(=C/c2cccs2)CC/C1=C\c1cccs1`, the general growth inhibition is 43%.
`Nc1cc2c(ncn2CCOCP(=O)(O)O)c(=O)[nH]1` [PMEG hydrate]: the general growth inhibition stood at 40.4%.
Still for that read-out and setting: in the case of `Oc1cc2c(c(Cl)c1O)CCNCC2c1ccccc1` (racemic) [(±)-6-Chloro-PB hydrobromide] it was 47.3%.
With `OC(CN1CCC(Cc2ccc(F)cc2)CC1)c1ccc(Cl)cc1` (stereo not drawn) [Eliprodil], the general growth inhibition worked out at 22.4%.
For `COc1cc2nc(N3CCN(C(=O)C4COc5ccccc5O4)CC3)nc(N)c2cc1OC` (stereo not drawn) [Doxazosin mesylate], the general growth inhibition was 7.81%.
In the case of `CCCNC(C)C(=O)Nc1ccccc1C` (stereo not drawn) [Prilocaine hydrochloride], the general growth inhibition was 55.8%.
Still for that read-out and setting: in the case of `NC(=O)c1cc[n+](CC2=C(C(=O)O)N3C(=O)[C@@H](NC(=O)C(c4ccccc4)S(=O)(=O)[O-])[C@H]3SC2)cc1` (stereo partly drawn) [Cefsulodin sodium salt hydrate] it was 37.2%; in that of `CCOC(=O)Nc1ccc(NCc2ccc(F)cc2)nc1N` [Flupirtine maleate], 23.7%; in that of `CC(C)C(=O)c1c(C(C)C)nn2ccccc12` [Ibudilast], 41.5%.
Turning to `O=C1CCC(N2C(=O)c3ccccc3C2=O)C(=O)N1` (racemic) [(±)-Thalidomide], the general growth inhibition was 47%.
On to `CN(C)CCC(c1ccc(Cl)cc1)c1ccccn1` (racemic) [(±)-Chlorpheniramine maleate], for which the general growth inhibition was 41.8%.
Same read-out and setting: in the case of `Oc1ccc(C2CNCCc3c2cc(O)c(O)c3Cl)cc1` (stereo not drawn) [Fenoldopam bromide] it was -2.34%.
On the same count and under the same terms, the result for `CCCCC1C(=O)N(c2ccccc2)N(c2ccccc2)C1=O` [Phenylbutazone] reads 43.7%.
With `CCOC(=O)c1ccc(C#Cc2ccc3c(c2)C(C)(C)CCS3)nc1` [Tazarotene], the general growth inhibition is 25.3%.
The same measure, in the same setting: the result for `CC(C)(Oc1ccc(C2CC2(Cl)Cl)cc1)C(=O)O` (stereo not drawn) [Ciprofibrate] reads 28.9%.
`CN(C)c1ccc(/C=C2/C(=O)Nc3ccccc32)cc1`: the general growth inhibition was 29.9%.
On the same count and under the same terms, in the case of `O=C(Nc1ccncc1)c1cc([N+](=O)[O-])ccc1Cl` it was 45.2%; in that of `CC(C)NCC(O)c1ccc(NS(C)(=O)=O)cc1` (racemic) [(±)-Sotalol hydrochloride], 56.6%.
On to `c1ccc2c(c1)CCCC2C1=NCCN1` (stereo not drawn) [Tetrahydrozoline hydrochloride], for which the general growth inhibition was 34.5%.
On the same count and under the same terms, the result for `CCOC(=O)C(C)(C)Oc1ccc(Cl)cc1` [Clofibrate] reads 42.5%.
As to `Cc1ccccc1C(OCCN(C)C)c1ccccc1` (stereo not drawn) [Orphenadrine hydrochloride], the general growth inhibition stood at 46.5%.
`CCC(NC(C)C)C(O)c1ccc(O)c(O)c1` (stereo not drawn) [Isotharine mesylate]: the general growth inhibition stood at 53.2%.
Consider `CC(C)Cc1ccc(C(C)C(=O)O)cc1` (racemic) [(±)-Ibuprofen], for which the general growth inhibition was determined as 65.9%.

A further assay concerns human PEX3-PEX19 interaction (yeast two-hybrid). As to the kind of experiment: growth inhibition of yeast two-hybrid strain reporting HsPex3-HsPex19 interaction, relative to DMSO; higher = stronger inhibition of human Pex3-Pex19 interaction / growth. The settings on record: 100 µM; 24 h; 3-aminotriazole 10 mM.
Turning to `O=C(O)c1cc([N+](=O)[O-])ccc1NCCCc1ccccc1` [5-Nitro-2-(3-phenylpropylamino)benzoic acid], the growth inhibition worked out at 34.4%.
Still for that read-out and setting: in the case of `COc1cccc(OC)c1OCCNCC1CSc2ccccc2O1` (stereo not drawn) [Benoxathian hydrochloride] it was 42.3%; in that of `O=C(CCc1ccc(O)cc1)c1c(O)cc(O)cc1O` [Phloretin], 42.3%; in that of `N[C@@H](C(=O)N[C@@H]1C(=O)N2C(C(=O)O)=C(Cl)CS[C@H]12)c1ccccc1` [Cefaclor], 51.7%.
With `CC(C)N(CCC(=O)c1ccc2ccccc2c1)Cc1ccccc1`, the growth inhibition came out at 84.8%.
As to `CC(C)c1ccc2c(c1)c(SC(C)(C)C)c(CC(C)(C)C(=O)O)n2Cc1ccc(Cl)cc1`, the growth inhibition was determined as 16%.
Still for that read-out and setting: in the case of `Cn1cc(C2=C(c3ccc(Cl)cc3Cl)C(=O)NC2=O)c2ccccc21` it was 24.2%.
On the same count and under the same terms, the result for `CCCn1c(=O)c(C)cn2nc(N)nc12` reads 50%.
On to `Cc1cccc(C2CN(C)CCc3c2cc(O)c(O)c3Cl)c1` (stereo not drawn), for which the growth inhibition stood at 56.6%.
Same read-out and setting: in the case of `CC(=O)O[C@H]1C[C@@]2(C)[C@@H](C[C@@H](O)[C@H]3[C@@]4(C)CC[C@@H](O)[C@@H](C)[C@@H]4CC[C@@]32C)/C1=C(\CCC=C(C)C)C(=O)O` [Fusidic acid sodium] it was 26.8%; in that of `CN1[C@@H]2CC[C@H]1C[C@@H](OC(c1ccccc1)c1ccccc1)C2` [Benztropine mesylate], 41.4%; in that of `CC(=O)NC[C@H]1CN(c2ccc(N3CCOCC3)c(F)c2)C(=O)O1` [Linezolid], 32%.
`NC(=O)c1ncn([C@@H]2O[C@H](CO)[C@@H](O)[C@H]2O)c1O` [Mizoribine]: the growth inhibition stood at 47.9%.
Still for that read-out and setting: in the case of `COC(=O)[C@H]1[C@H]2C[C@H]3c4[nH]c5ccccc5c4CCN3C[C@H]2CC[C@@H]1O` [Rauwolscine hydrochloride] it was 44.2%; in that of `Nc1ccc(-c2nc3ccc(-c4nc5ccc(N)cc5[nH]4)cc3[nH]2)cc1`, 69.9%.
For the compound `c1ccc(-c2ccccn2)nc1` [2,2'-Bipyridyl], the growth inhibition was found to be 22.4%.
On to `O=C1/C(=C/c2cccs2)CC/C1=C\c1cccs1`, for which the growth inhibition was found to be 35.8%.
The same measure, in the same setting: in the case of `Nc1cc2c(ncn2CCOCP(=O)(O)O)c(=O)[nH]1` [PMEG hydrate] it was 38.9%.
Consider `Oc1cc2c(c(Cl)c1O)CCNCC2c1ccccc1` (racemic) [(±)-6-Chloro-PB hydrobromide], for which the growth inhibition was found to be 47.3%.
Turning to `OC(CN1CCC(Cc2ccc(F)cc2)CC1)c1ccc(Cl)cc1` (stereo not drawn) [Eliprodil], the growth inhibition is 18.8%.
On the same count and under the same terms, the result for `COc1cc2nc(N3CCN(C(=O)C4COc5ccccc5O4)CC3)nc(N)c2cc1OC` (stereo not drawn) [Doxazosin mesylate] reads 4.77%; that for `CCCNC(C)C(=O)Nc1ccccc1C` (stereo not drawn) [Prilocaine hydrochloride], 49.5%; that for `NC(=O)c1cc[n+](CC2=C(C(=O)O)N3C(=O)[C@@H](NC(=O)C(c4ccccc4)S(=O)(=O)[O-])[C@H]3SC2)cc1` (stereo partly drawn) [Cefsulodin sodium salt hydrate], 47.7%.
With `CCOC(=O)Nc1ccc(NCc2ccc(F)cc2)nc1N` [Flupirtine maleate], the growth inhibition came out at 31.4%.
`CC(C)C(=O)c1c(C(C)C)nn2ccccc12` [Ibudilast]: the growth inhibition was found to be 37.6%.
Still for that read-out and setting: in the case of `O=C1CCC(N2C(=O)c3ccccc3C2=O)C(=O)N1` (racemic) [(±)-Thalidomide] it was 50.2%.
Regarding `CN(C)CCC(c1ccc(Cl)cc1)c1ccccn1` (racemic) [(±)-Chlorpheniramine maleate], the growth inhibition stood at 36.9%.
For `Oc1ccc(C2CNCCc3c2cc(O)c(O)c3Cl)cc1` (stereo not drawn) [Fenoldopam bromide], the growth inhibition is -0.318%.
Turning to `CCCCC1C(=O)N(c2ccccc2)N(c2ccccc2)C1=O` [Phenylbutazone], the growth inhibition stood at 22.4%.
With `CCOC(=O)c1ccc(C#Cc2ccc3c(c2)C(C)(C)CCS3)nc1` [Tazarotene], the growth inhibition is 29.1%.
Same read-out and setting: the result for `CC(C)(Oc1ccc(C2CC2(Cl)Cl)cc1)C(=O)O` (stereo not drawn) [Ciprofibrate] reads 37.4%; that for `CN(C)c1ccc(/C=C2/C(=O)Nc3ccccc32)cc1`, 23.6%; that for `O=C(Nc1ccncc1)c1cc([N+](=O)[O-])ccc1Cl`, 18%.
Same read-out and setting: the result for `CC(C)NCC(O)c1ccc(NS(C)(=O)=O)cc1` (racemic) [(±)-Sotalol hydrochloride] reads 50.2%.
Turning to `c1ccc2c(c1)CCCC2C1=NCCN1` (stereo not drawn) [Tetrahydrozoline hydrochloride], the growth inhibition amounted to 51.6%.
On the same count and under the same terms, the result for `CCOC(=O)C(C)(C)Oc1ccc(Cl)cc1` [Clofibrate] reads 38%; that for `Cc1ccccc1C(OCCN(C)C)c1ccccc1` (stereo not drawn) [Orphenadrine hydrochloride], 41%.
Turning to `CCC(NC(C)C)C(O)c1ccc(O)c(O)c1` (stereo not drawn) [Isotharine mesylate], the growth inhibition was found to be 37.7%.
Still for that read-out and setting: the result for `CC(C)Cc1ccc(C(C)C(=O)O)cc1` (racemic) [(±)-Ibuprofen] reads 69.1%.

(Values after the supplement of paper PMC8326762, “A Small Molecule Inhibitor of Pex3–Pex19 Interaction Disrupts Glycosome Biogenesis and Causes Lethality in Trypanosoma brucei” (Frontiers in Cell and Developmental Biology, 2021).)
